# Measured values from the supplement of paper PMC4635364.
# Structures can show the parent of a compound that is named as a salt. This is one part of the list. Repeats in this data set agree poorly, so a single value says little.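 Cells: ReNCell VM human fetal ventral-midbrain neural progenitors, differentiated mitogen-free. Blinded raters compared doublecortin-stained (early neurons) or tyrosine hydroxylase-stained (dopaminergic neurons) images with untreated wells, where 0 means no change. After repeats and both raters were averaged, compounds scoring 2 or above became hits for retesting.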
# Assays:
# ReNCell VM [1] = assay: neuronal differentiation score (DCX+ cell fraction vs untreated, manual image score) (score (-3 to 3)); higher = more neuronal differentiation; conditions: 2 uM, 2 weeks
# ReNCell VM [2] = assay: dopaminergic neuron differentiation score (TH+ cell fraction vs untreated, manual image score) (score (0 to 3)); higher = more TH+ dopaminergic neuron differentiation; conditions: 2 uM, 4 weeks, BDNF 10 ng/ml + GDNF 10 ng/ml
compound,measurement,setting,value
CC(=O)[C@@]1(O)CC[C@H]2[C@@H]3CCC4=CC(=O)CC[C@]4(C)[C@H]3CC[C@@]21C,neuronal differentiation score,ReNCell VM [1]; library: Spectrum,inactive: 0
same,dopaminergic neuron differentiation score,ReNCell VM [2]; library: Spectrum,inactive: 0
CCC(=O)NC1CCc2cccc(OC)c2C1 (stereo not drawn),neuronal differentiation score,ReNCell VM [1]; library: Tocriscreen,inactive: 0
same,dopaminergic neuron differentiation score,ReNCell VM [2]; library: Tocriscreen,inactive: 0
C=CC(C1=CC(=O)C=CC1=O)c1ccccc1 (stereo not drawn),neuronal differentiation score,ReNCell VM [1]; library: Spectrum,inactive: 0
same,dopaminergic neuron differentiation score,ReNCell VM [2]; library: Spectrum,inactive: 0
CO/N=C(\C(=O)N[C@@H]1C(=O)N2C(C(=O)O)=C(COC(N)=O)CS[C@H]12)c1ccco1,neuronal differentiation score,ReNCell VM [1]; library: Spectrum,active: 3
same,dopaminergic neuron differentiation score,ReNCell VM [2]; library: Spectrum,inactive: 0
CNCC[C@@H](Oc1ccccc1C)c1ccccc1,neuronal differentiation score,ReNCell VM [1]; library: Spectrum,inactive: 1
same,dopaminergic neuron differentiation score,ReNCell VM [2]; library: Spectrum,inactive: 0
CCCCCCCCCCCCCCCCCC(=O)NCC(COP(=O)([O-])OCC[N+](C)(C)C)OCC (racemic) [rac-2-Ethoxy-3-octadecanamido-1-propylphosphocholine],neuronal differentiation score,ReNCell VM [1]; library: LOPAC,inactive: -3
same,dopaminergic neuron differentiation score,ReNCell VM [2]; library: LOPAC,inactive: 0
"CN1c2ccccc2C(O)=C(c2ccccc2)C1O (stereo not drawn) [n-methyl-2,4-dihydroxy-3-phenylquinoline]",neuronal differentiation score,ReNCell VM [1]; library: Natural,inactive: 0
same,dopaminergic neuron differentiation score,ReNCell VM [2]; library: Natural,inactive: 0
COC(=O)C1Cc2c([nH]c3ccccc23)CN1C(=O)COc1ccc2c(C)cc(=O)oc2c1 (stereo not drawn),neuronal differentiation score,ReNCell VM [1]; library: Natural,inactive: -1
same,dopaminergic neuron differentiation score,ReNCell VM [2]; library: Natural,inactive: 0
COc1cc(CNC(=O)CCCC/C=C/C(C)C)ccc1O [Capsaicin],neuronal differentiation score,ReNCell VM [1]; library: Phytochemical,inactive: 0
same,dopaminergic neuron differentiation score,ReNCell VM [2]; library: Phytochemical,inactive: 0
COC1=CC(=O)C(O)=C/C1=C\C=C\c1ccccc1,neuronal differentiation score,ReNCell VM [1]; library: Spectrum,inactive: 0
same,dopaminergic neuron differentiation score,ReNCell VM [2]; library: Spectrum,inactive: 0
CC(C)OC(=O)C(C)(C)Oc1ccc(C(=O)c2ccc(Cl)cc2)cc1,neuronal differentiation score,ReNCell VM [1]; library: Spectrum,inactive: 0
same,dopaminergic neuron differentiation score,ReNCell VM [2]; library: Spectrum,inactive: 0
Cc1cn([C@H]2C[C@H](N=[N+]=[N-])[C@@H](CO)O2)c(=O)[nH]c1=O [3'-Azido-3'-deoxythymidine],neuronal differentiation score,ReNCell VM [1]; library: LOPAC,inactive: 0
same,dopaminergic neuron differentiation score,ReNCell VM [2]; library: LOPAC,inactive: 0
CSCC[C@H](N)C(=O)O [L-Methionine],neuronal differentiation score,ReNCell VM [1]; library: Phytochemical,inactive: 0
same,dopaminergic neuron differentiation score,ReNCell VM [2]; library: Phytochemical,inactive: 0
CC1CCN(CCCC(=O)c2ccc(F)cc2)CC1 [Melperone hydrochloride],neuronal differentiation score,ReNCell VM [1]; library: Tocriscreen,inactive: 0
same,dopaminergic neuron differentiation score,ReNCell VM [2]; library: Tocriscreen,inactive: 0
COc1c(O)cc2c(c1O)[C@@H]1O[C@H](CO)[C@@H](O)[C@H](O)[C@H]1OC2=O,neuronal differentiation score,ReNCell VM [1]; library: Spectrum,inactive: 0
same,dopaminergic neuron differentiation score,ReNCell VM [2]; library: Spectrum,inactive: 0
CCN(CC)CCCC(C)Nc1c2ccc(Cl)cc2nc2ccc(OC)cc12 (stereo not drawn) [Quinacrine dihydrochloride],neuronal differentiation score,ReNCell VM [1]; library: LOPAC,inactive: 0
same,dopaminergic neuron differentiation score,ReNCell VM [2]; library: LOPAC,inactive: 0
c1ccc(C(NCc2cccnc2)(c2ccccc2)c2ccccc2)cc1,neuronal differentiation score,ReNCell VM [1]; library: Tocriscreen,inactive: 0
same,dopaminergic neuron differentiation score,ReNCell VM [2]; library: Tocriscreen,inactive: 0
"CCN(CC)CCOc1ccc(C(=C(Cl)c2ccccc2)c2ccccc2)cc1 [Clomiphene citrate (Z,E)]",neuronal differentiation score,ReNCell VM [1]; library: Prestwick,inactive: 0
same,dopaminergic neuron differentiation score,ReNCell VM [2]; library: Prestwick,inactive: 0
Cc1cc(=O)n(-c2ccccc2)n1C [Antipyrine],neuronal differentiation score,ReNCell VM [1]; library: Prestwick,inactive: 0
same,dopaminergic neuron differentiation score,ReNCell VM [2]; library: Prestwick,inactive: 0
C[C@@H]1C/C=C/C=C/C=C/C=C/[C@H](O[C@@H]2O[C@H](C)[C@@H](O)[C@H](N)[C@@H]2O)C[C@@H]2O[C@](O)(C[C@@H](O)C[C@H]3O[C@@H]3/C=C/C(=O)O1)C[C@H](O)[C@H]2C(=O)O,neuronal differentiation score,ReNCell VM [1]; library: Spectrum,inactive: 0
same,dopaminergic neuron differentiation score,ReNCell VM [2]; library: Spectrum,inactive: 0
CCn1cc(C(=O)O)c(=O)c2cnc(N3CCNCC3)nc21 [Pipemidic acid],neuronal differentiation score,ReNCell VM [1]; library: Prestwick,inactive: 0
same,dopaminergic neuron differentiation score,ReNCell VM [2]; library: Prestwick,inactive: 0
CC[C@H]1OC(=O)[C@H](C)[C@@H](O[C@H]2C[C@@](C)(OC)[C@@H](O)[C@H](C)O2)[C@H](C)[C@@H](O[C@@H]2O[C@H](C)C[C@H](N(C)C)[C@H]2O)[C@](C)(OC)C[C@@H](C)C(=O)[C@H](C)[C@@H](O)[C@]1(C)O [Clarithromycin],neuronal differentiation score,ReNCell VM [1]; library: Prestwick,inactive: 0
same,dopaminergic neuron differentiation score,ReNCell VM [2]; library: Prestwick,inactive: 0
OC[C@@H](O)[C@@H](O[C@@H]1O[C@H](CO)[C@@H](O)[C@H](O)[C@H]1O)[C@H](O)[C@@H](O)CO,neuronal differentiation score,ReNCell VM [1]; library: Spectrum,inactive: 0
same,dopaminergic neuron differentiation score,ReNCell VM [2]; library: Spectrum,inactive: 0
CNc1cc(OC)c(C(=O)NC2CCN(Cc3ccccc3)C2C)cc1Cl (stereo not drawn) [Nemonapride],neuronal differentiation score,ReNCell VM [1]; library: Tocriscreen,inactive: 0
same,dopaminergic neuron differentiation score,ReNCell VM [2]; library: Tocriscreen,inactive: 0
Cc1cccc(Nc2cc(Cl)nc(SCC(=O)O)n2)c1C,neuronal differentiation score,ReNCell VM [1]; library: Tocriscreen,inactive: 0
same,dopaminergic neuron differentiation score,ReNCell VM [2]; library: Tocriscreen,inactive: 0
CNC(C)CCC=C(C)C (stereo not drawn) [Isometheptene mucate],neuronal differentiation score,ReNCell VM [1]; library: Prestwick,inactive: 0
same,dopaminergic neuron differentiation score,ReNCell VM [2]; library: Prestwick,inactive: 0
CC1(C)S[C@@H]2[C@H](NC(=O)COc3ccccc3)C(=O)N2[C@H]1C(=O)O,neuronal differentiation score,ReNCell VM [1]; library: Spectrum,inactive: 0
same,dopaminergic neuron differentiation score,ReNCell VM [2]; library: Spectrum,inactive: 0
C[C@@H]1CN(c2c(F)c(N)c3c(=O)c(C(=O)O)cn(C4CC4)c3c2F)C[C@H](C)N1,neuronal differentiation score,ReNCell VM [1]; library: Spectrum,inactive: 0
same,dopaminergic neuron differentiation score,ReNCell VM [2]; library: Spectrum,inactive: 0
CCN1CCCC(OC(=O)C(c2ccccc2)c2ccccc2)C1 (stereo not drawn) [Piperidolate hydrochloride],neuronal differentiation score,ReNCell VM [1]; library: Prestwick,inactive: 0
same,dopaminergic neuron differentiation score,ReNCell VM [2]; library: Prestwick,inactive: 0
COc1c(-c2coc3cc4c(cc3c2=O)CC(OC(C)=O)C(C)(C)O4)ccc2c1C=CC(C)(C)O2 (stereo not drawn),neuronal differentiation score,ReNCell VM [1]; library: Spectrum,inactive: 0
same,dopaminergic neuron differentiation score,ReNCell VM [2]; library: Spectrum,inactive: 0
CCCOc1ccc(Br)cc1-c1cc(-c2ccc(Cl)cc2)[nH]c1-c1ccncc1,neuronal differentiation score,ReNCell VM [1]; library: Tocriscreen,inactive: 0
same,dopaminergic neuron differentiation score,ReNCell VM [2]; library: Tocriscreen,inactive: 0
Oc1ccc(C2CNCCc3c2cc(O)c(O)c3Cl)cc1 (stereo not drawn) [Fenoldopam bromide],neuronal differentiation score,ReNCell VM [1]; library: LOPAC,inactive: 0
same,dopaminergic neuron differentiation score,ReNCell VM [2]; library: LOPAC,inactive: 0
Cc1c(N(C)C)c(=O)n(-c2ccccc2)n1C,neuronal differentiation score,ReNCell VM [1]; library: Spectrum,inactive: 0
same,dopaminergic neuron differentiation score,ReNCell VM [2]; library: Spectrum,inactive: 0
FC(F)(F)c1ccc(/C=C/c2nc(COc3ccc(CCCCn4ccnn4)cc3)co2)cc1,neuronal differentiation score,ReNCell VM [1]; library: Tocriscreen,inactive: 0
same,dopaminergic neuron differentiation score,ReNCell VM [2]; library: Tocriscreen,inactive: 0

# Taken from the results shown (six entries):
compound,measurement,setting,value
C=CC(C1=CC(=O)C=CC1=O)c1ccccc1 (stereo not drawn),dopaminergic neuron differentiation score,ReNCell VM [2]; library: Spectrum,inactive: 0
CO/N=C(\C(=O)N[C@@H]1C(=O)N2C(C(=O)O)=C(COC(N)=O)CS[C@H]12)c1ccco1,neuronal differentiation score,ReNCell VM [1]; library: Spectrum,active: 3
same,dopaminergic neuron differentiation score,ReNCell VM [2]; library: Spectrum,inactive: 0
CNCC[C@@H](Oc1ccccc1C)c1ccccc1,neuronal differentiation score,ReNCell VM [1]; library: Spectrum,inactive: 1
same,dopaminergic neuron differentiation score,ReNCell VM [2]; library: Spectrum,inactive: 0
CCCCCCCCCCCCCCCCCC(=O)NCC(COP(=O)([O-])OCC[N+](C)(C)C)OCC (racemic) [rac-2-Ethoxy-3-octadecanamido-1-propylphosphocholine],neuronal differentiation score,ReNCell VM [1]; library: LOPAC,inactive: -3
